# Test results taken from the supplement of paper PMC12823440, “Inhibitors supercharge kinase turnover through native proteolytic circuits” (Nature, 2025).
# Chains of the proteins cited; added tags and fusions are not shown. Lines headed by an entry give the natural chain unless they say otherwise; changes in a name come on top.
# UniProt Q01974, whole entry: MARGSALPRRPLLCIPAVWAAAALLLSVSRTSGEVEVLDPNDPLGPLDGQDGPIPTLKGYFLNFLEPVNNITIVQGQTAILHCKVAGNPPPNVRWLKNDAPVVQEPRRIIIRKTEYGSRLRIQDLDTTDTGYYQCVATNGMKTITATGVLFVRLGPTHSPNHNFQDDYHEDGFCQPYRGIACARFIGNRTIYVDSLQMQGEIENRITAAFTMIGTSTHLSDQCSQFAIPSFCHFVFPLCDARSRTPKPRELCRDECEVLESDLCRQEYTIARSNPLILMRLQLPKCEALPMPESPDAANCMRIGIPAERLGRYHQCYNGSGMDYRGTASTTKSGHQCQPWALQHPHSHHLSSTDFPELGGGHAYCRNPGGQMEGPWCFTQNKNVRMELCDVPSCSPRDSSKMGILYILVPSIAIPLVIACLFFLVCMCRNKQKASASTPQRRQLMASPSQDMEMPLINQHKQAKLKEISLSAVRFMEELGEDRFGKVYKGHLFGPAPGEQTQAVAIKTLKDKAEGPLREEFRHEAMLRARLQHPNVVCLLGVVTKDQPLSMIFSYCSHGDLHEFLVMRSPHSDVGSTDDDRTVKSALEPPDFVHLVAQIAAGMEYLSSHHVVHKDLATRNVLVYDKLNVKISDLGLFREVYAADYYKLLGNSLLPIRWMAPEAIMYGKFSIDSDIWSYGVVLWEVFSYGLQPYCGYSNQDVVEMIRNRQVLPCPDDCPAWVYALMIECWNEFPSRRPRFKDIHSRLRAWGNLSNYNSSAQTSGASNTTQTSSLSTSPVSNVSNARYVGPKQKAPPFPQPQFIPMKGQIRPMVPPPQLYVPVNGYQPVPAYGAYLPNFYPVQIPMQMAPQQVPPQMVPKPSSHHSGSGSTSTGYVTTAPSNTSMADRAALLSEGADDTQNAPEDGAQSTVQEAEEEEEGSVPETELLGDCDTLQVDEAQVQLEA
# UniProt Q15418, whole entry: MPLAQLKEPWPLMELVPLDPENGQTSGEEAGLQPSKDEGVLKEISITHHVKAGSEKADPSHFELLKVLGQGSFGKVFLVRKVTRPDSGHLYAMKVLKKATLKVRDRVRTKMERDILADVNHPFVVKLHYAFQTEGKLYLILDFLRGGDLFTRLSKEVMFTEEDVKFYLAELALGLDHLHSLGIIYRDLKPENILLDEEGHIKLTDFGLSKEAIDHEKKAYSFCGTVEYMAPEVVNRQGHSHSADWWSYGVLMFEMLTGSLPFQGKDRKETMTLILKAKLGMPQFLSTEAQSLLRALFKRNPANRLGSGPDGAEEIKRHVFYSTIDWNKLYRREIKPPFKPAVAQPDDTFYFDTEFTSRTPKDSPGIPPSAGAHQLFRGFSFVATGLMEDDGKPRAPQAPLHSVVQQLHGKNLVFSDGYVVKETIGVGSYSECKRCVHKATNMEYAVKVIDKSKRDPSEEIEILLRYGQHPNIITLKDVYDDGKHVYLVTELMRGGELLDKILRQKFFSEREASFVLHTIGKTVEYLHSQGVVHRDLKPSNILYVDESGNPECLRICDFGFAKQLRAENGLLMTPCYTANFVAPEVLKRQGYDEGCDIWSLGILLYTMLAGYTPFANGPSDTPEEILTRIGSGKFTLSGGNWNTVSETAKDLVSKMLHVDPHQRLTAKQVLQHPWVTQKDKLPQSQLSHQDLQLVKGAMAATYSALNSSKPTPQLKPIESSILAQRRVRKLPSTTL
# UniProt Q9NYA1, whole entry: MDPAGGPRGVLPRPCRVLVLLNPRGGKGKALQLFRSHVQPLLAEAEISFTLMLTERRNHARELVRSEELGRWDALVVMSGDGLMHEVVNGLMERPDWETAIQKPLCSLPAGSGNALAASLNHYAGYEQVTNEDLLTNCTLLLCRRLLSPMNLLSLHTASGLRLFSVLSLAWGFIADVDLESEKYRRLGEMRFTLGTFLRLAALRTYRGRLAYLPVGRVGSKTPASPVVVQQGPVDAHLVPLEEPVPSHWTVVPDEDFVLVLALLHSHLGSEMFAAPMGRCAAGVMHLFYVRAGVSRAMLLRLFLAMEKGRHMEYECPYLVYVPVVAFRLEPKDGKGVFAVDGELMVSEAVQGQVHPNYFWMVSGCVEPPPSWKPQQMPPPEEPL
# UniProt P42680: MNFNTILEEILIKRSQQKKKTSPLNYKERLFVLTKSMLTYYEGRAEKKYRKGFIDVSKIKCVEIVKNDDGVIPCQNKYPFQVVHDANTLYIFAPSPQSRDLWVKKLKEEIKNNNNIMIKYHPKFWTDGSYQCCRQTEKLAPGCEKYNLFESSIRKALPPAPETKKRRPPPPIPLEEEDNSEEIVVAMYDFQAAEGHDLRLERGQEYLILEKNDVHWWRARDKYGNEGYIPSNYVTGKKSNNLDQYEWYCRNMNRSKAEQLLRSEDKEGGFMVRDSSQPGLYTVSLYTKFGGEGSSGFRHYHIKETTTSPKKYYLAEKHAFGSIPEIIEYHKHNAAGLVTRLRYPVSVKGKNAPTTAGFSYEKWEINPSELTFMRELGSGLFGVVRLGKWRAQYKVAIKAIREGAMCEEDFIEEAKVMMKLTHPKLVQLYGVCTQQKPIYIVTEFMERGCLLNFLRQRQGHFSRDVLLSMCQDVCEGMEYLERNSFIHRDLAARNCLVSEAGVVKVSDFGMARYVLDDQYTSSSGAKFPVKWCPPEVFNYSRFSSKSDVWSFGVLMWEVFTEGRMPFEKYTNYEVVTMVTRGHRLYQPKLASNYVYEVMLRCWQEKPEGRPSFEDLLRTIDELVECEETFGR
# UniProt P29597: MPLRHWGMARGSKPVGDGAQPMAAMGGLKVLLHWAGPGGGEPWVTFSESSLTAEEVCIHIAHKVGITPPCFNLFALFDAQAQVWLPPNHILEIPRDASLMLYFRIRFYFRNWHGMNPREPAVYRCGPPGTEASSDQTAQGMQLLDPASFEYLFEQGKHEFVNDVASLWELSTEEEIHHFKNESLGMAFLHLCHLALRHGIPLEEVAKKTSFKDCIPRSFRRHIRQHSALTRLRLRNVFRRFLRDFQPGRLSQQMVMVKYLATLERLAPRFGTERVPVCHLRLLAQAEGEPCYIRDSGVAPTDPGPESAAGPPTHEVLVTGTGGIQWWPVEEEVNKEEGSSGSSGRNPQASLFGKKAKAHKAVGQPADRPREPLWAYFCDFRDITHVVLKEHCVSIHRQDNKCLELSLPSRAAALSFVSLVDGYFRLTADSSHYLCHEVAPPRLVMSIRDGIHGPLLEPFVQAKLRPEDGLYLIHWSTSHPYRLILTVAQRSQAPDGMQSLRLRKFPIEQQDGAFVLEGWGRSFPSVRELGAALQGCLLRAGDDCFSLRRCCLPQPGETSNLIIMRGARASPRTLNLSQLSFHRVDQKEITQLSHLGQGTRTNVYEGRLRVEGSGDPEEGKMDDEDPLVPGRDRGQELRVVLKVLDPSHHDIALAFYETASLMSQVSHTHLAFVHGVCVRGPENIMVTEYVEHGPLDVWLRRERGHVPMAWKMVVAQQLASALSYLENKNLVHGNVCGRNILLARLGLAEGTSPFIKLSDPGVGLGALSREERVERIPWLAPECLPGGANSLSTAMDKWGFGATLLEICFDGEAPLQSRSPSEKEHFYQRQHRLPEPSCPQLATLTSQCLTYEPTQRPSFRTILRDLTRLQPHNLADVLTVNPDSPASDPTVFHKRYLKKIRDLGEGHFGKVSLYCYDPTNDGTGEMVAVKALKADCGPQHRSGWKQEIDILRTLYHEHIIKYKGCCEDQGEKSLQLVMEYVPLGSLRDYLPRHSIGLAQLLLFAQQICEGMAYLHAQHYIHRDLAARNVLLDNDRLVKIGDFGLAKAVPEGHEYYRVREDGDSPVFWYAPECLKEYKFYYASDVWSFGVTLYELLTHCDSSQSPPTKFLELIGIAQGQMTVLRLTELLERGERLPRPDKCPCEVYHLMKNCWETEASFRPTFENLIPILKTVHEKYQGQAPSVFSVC
# UniProt Q6PHR2: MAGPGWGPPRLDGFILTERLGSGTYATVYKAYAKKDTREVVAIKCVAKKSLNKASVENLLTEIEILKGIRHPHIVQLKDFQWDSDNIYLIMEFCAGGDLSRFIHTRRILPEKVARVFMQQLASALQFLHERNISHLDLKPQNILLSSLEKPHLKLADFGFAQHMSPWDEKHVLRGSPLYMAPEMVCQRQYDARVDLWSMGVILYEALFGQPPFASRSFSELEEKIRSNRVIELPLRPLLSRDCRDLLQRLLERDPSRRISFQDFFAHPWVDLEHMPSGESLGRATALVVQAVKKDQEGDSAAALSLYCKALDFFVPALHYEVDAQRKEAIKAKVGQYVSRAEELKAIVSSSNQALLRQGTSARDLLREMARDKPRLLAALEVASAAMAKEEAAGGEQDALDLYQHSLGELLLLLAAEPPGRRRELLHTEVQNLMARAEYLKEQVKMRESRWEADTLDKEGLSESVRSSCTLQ
# UniProt P07947, whole entry, looked up: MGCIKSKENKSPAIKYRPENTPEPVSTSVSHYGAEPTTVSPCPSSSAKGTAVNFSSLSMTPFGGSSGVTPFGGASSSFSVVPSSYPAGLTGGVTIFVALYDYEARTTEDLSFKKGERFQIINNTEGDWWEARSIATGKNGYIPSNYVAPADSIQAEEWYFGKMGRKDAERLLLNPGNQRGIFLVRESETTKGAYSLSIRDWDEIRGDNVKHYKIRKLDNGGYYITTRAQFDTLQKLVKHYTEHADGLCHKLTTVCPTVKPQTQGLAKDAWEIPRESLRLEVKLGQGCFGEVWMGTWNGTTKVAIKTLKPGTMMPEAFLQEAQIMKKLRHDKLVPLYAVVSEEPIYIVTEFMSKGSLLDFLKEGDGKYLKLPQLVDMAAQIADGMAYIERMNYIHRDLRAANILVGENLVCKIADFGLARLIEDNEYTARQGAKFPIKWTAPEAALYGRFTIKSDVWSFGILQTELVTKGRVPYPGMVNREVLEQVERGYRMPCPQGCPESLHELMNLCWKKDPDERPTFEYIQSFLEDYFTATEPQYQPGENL
# UniProt P43403: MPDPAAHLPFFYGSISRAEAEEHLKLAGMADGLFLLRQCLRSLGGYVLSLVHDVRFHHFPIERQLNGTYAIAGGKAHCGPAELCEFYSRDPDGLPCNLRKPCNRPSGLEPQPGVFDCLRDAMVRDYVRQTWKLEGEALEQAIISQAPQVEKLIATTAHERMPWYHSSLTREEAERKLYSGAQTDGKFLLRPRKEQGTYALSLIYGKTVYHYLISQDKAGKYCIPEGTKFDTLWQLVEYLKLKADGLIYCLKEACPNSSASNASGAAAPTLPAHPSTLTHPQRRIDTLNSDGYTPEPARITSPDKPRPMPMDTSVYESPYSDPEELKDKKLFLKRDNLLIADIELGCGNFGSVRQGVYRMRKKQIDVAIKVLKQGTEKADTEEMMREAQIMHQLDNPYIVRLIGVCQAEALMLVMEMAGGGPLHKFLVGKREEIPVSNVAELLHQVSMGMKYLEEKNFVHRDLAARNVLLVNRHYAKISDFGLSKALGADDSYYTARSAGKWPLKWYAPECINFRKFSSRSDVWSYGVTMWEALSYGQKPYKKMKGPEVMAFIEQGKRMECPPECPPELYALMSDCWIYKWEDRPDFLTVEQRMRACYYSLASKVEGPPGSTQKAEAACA
# UniProt P11802: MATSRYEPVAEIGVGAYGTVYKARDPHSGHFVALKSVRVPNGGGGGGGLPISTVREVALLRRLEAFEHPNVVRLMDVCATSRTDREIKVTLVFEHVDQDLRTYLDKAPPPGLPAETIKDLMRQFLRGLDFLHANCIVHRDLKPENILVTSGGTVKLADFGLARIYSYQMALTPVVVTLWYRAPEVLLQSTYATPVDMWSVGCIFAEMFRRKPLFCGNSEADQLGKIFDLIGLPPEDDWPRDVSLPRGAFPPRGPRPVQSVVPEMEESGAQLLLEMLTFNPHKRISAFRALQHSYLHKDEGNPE
# UniProt P50613: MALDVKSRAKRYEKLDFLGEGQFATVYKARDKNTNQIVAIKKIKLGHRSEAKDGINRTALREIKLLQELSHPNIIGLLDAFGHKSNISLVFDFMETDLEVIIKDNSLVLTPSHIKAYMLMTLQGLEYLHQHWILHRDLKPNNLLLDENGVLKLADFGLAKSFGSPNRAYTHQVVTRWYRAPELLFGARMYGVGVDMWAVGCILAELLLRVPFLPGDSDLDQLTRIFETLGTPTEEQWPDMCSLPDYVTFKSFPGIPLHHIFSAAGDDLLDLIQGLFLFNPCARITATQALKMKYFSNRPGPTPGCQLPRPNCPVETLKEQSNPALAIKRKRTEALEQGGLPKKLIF
# UniProt P50750, whole entry: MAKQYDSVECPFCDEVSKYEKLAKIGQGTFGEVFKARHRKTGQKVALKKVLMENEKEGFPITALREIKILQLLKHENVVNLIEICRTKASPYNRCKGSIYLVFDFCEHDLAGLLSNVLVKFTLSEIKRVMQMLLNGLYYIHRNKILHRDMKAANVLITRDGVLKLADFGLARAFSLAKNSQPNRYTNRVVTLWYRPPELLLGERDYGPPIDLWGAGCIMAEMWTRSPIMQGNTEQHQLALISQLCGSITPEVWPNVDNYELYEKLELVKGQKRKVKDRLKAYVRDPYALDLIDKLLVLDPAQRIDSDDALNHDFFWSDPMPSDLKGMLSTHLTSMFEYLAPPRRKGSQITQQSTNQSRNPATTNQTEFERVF
# Structures can show the parent of a compound that is named as a salt. The list shows a part of the results. Hit calls seldom repeat between salt and free forms of one compound.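 Kinases, fused to nanoluciferase, were expressed in K562 cells; luminescence was measured every 4 h from 2 to 18 h as percent of control (DMSO = 100%, positive control = 0%). A time point is decreased if signal falls significantly (2 sigma). Hits were called by the authors by a rule that is not shown; the count of time points alone does not decide it.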
# Assays:
# Conditions in all cases: K562; 2-18 h
# [1] = molecular target: ROR2 (UniProt Q01974); experiment: number of time points (of 5) at which kinase-Nluc abundance scored as decreased, DMSO-normalised (count); higher = more persistent destabilization
# [2] = molecular target: RPS6KA1 (UniProt Q15418); experiment: as above
# [3] = molecular target: SPHK1 (UniProt Q9NYA1); experiment: as above
# [4] = molecular target: SRC (UniProt P12931); experiment: as above
# [5] = molecular target: STK24 (UniProt Q9Y6E0); experiment: as above
# [6] = molecular target: STK38 (UniProt Q15208); experiment: as above
# [7] = molecular target: SYK (UniProt P43405); experiment: as above
# [8] = molecular target: TEC (UniProt P42680); experiment: as above
# [9] = molecular target: TYK2 (UniProt P29597); experiment: as above
# [10] = molecular target: ULK3 (UniProt Q6PHR2); experiment: as above
# [11] = molecular target: YES1 (UniProt P07947); experiment: as above
# [12] = molecular target: ZAK (UniProt Q9NYL2); experiment: as above
# [13] = molecular target: ZAP70 (UniProt P43403); experiment: as above
# [14] = molecular target: CDK4 (UniProt P11802); experiment: number of time points (of 4; 2 h point missing) at which kinase-Nluc abundance scored as decreased, DMSO-normalised (count); higher = more persistent destabilization
# [15] = molecular target: CDK7 (UniProt P50613); experiment: as above
# [16] = molecular target: CDK9 (UniProt P50750); experiment: as above
Compound,number of time points [1],number of time points [2],number of time points [3],number of time points [4],number of time points [5],number of time points [6],number of time points [7],number of time points [8],number of time points [9],number of time points [10],number of time points [11],number of time points [12],number of time points [13],number of time points [14],number of time points [15],number of time points [16]
C=CC(=O)Nc1cc(C(=O)NC)cc(-c2n[nH]c3ccccc23)c1 (10 µM),0,0,0,0,0,0,0,3,0,0,0,0,0,0,0,0
CCCCCC1CC1CC1CC1CCCCCCCC(=O)O (stereo not drawn) (10 µM),0,0,0,0,0,0,0,0,0,0,0,0,0,0,0,0
C=CC(=O)N1CCC[C@@H](n2c(=O)n(-c3ccc(Oc4ccccc4)cc3)c3c(N)nccc32)C1 [Tolebrutinib] (10 µM),0,0,0,0,0,0,0,0,0,0,0,0,0,0,0,0
N#Cc1c[nH]c2ccc(-c3ccc(-c4c(O)cccc4O)cc3)cc12 (10 µM),0,0,0,0,0,0,0,0,0,0,0,0,0,0,0,0
CC(C)(C)c1ccc(C(=O)Nc2cn3cc(-n4ccnc4)ccc3n2)cc1 (10 µM),0,0,0,0,0,0,0,0,0,0,0,0,0,0,0,0
C[C@@]12CCc3occc3[C@H]1CC[C@@]13C[C@@H](CC[C@H]12)[C@@](O)(CO)C3 [Cafestol] (10 µM),0,0,0,0,0,0,0,0,0,0,0,0,0,0,0,0
"CC(=O)c1cc(O)ccc1O [2,5-Dihydroxyacetophenone] (10 µM)",0,0,0,0,0,0,0,0,0,0,0,0,0,0,0,0
C[C@@H]1CN(CC(=O)Nc2ccc3c(c2)Cc2cccc(-c4cc(=O)cc(N5CCOCC5)o4)c2S3)C[C@H](C)O1 (2.5 µM),0,0,0,0,0,0,0,0,0,0,0,0,0,0,0,0
CCOc1cc(C(=O)N2CCC(N3CCN(C)CC3)CC2)ccc1Nc1ncc2c(n1)N(S(C)(=O)=O)c1ccccc1C(=O)N2C (10 µM),0,0,0,0,0,0,0,0,0,0,0,0,0,0,0,0
Cn1cc(-c2ccc3ncc(Cc4ccc5ncccc5c4)n3n2)cn1 (10 µM),0,0,0,0,0,0,0,0,0,0,0,0,0,0,0,0
Cc1c(C(=O)Nc2ccc(Oc3ccnc4cc(OCC(C)(C)O)ccc34)c(F)c2)c(=O)n(-c2ccccc2)n1C [Ningetinib Tosylate] (10 µM),0,0,1,0,0,0,0,0,3,3,0,0,0,1,3,2
COc1ccc(C(=O)c2cn(C(C)C)c3ncnc(N)c23)cc1NC(=O)Nc1ccc(Cl)cc1Cl (10 µM),0,0,0,0,0,0,0,0,0,0,0,0,0,0,0,0
CNC(=O)c1ccc(-c2cnc3ncc(Cc4ccc5ncccc5c4)n3n2)cc1F [Capmatinib] (10 µM),0,0,0,0,0,0,0,0,0,0,0,0,0,0,0,0
